According to paper PMC10119145:
Results are given in words; binding and its absence hold for the method and conditions named. Binding seen in cells or lysates may run through a third protein. For part of these data: Sequences can lack the tags named with a protein.

The chains behind the UniProt entries cited, without tags or fusion partners.
UniProt P61586: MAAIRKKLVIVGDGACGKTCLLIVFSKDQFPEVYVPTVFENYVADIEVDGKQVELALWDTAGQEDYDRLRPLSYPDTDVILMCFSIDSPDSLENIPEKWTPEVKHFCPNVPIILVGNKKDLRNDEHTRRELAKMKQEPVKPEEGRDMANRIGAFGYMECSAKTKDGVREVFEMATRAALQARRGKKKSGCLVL

Legend:
[1] = target: RhoA, endogenous (human (endogenous in HCC cells)) (UniProt P61586); assay: co-IP; endogenous proteins in cell lysate; protein A/G agarose beads coupled with primary antibodies, 8 h rotation at 4 °C, western blot
[2] = target: RhoA in the Co-IP with exogenous tag plasmids (UniProt P61586); assay: co-IP; Co-IP with exogenous tag plasmid (full-length Flag-SEPT11 and SEPT11 fragments transfected); protein A/G agarose beads coupled with primary antibodies, 8 h at 4 °C, western blot
[3] = target: T1, GEF-H1 (human (endogenous in HepG2 and Huh7)) (UniProt Q92974); assay: co-IP; lysates of HCC cells with SEPT11 overexpression or control (HepG2 and Huh7 named for Fig. 7D); protein A/G agarose beads coupled with primary antibodies, 8 h at 4 °C, western blot
T1 sequence: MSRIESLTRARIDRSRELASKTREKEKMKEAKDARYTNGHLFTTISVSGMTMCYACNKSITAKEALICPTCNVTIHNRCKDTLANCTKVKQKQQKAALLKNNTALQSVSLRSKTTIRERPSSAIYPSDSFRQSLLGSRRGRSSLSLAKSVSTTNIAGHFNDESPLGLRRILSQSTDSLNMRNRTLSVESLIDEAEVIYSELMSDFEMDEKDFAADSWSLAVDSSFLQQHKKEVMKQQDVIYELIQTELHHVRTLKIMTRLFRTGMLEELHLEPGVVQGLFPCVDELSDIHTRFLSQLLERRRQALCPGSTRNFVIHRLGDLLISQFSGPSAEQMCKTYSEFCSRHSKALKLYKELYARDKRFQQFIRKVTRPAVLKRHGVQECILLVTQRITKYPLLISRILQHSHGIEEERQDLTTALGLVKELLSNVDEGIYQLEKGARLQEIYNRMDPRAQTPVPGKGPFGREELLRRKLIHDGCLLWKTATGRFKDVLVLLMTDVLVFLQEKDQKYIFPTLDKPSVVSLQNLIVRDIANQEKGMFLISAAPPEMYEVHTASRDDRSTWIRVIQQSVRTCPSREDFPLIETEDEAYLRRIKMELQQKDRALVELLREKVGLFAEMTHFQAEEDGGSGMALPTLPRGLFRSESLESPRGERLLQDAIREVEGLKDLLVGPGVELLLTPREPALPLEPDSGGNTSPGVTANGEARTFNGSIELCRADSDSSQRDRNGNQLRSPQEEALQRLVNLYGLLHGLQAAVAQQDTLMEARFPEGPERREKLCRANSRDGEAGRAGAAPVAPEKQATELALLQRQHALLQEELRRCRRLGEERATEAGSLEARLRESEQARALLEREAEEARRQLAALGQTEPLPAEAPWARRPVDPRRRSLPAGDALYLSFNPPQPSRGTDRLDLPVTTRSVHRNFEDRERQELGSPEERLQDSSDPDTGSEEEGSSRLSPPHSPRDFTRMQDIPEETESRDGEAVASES

B1: SEPT11 (Septin11), endogenous (protein, UniProt Q9NVA2 1-429)
chain: MAVAVGRPSNEELRNLSLSGHVGFDSLPDQLVNKSTSQGFCFNILCVGETGIGKSTLMDTLFNTKFESDPATHNEPGVRLKARSYELQESNVRLKLTIVDTVGFGDQINKDDSYKPIVEYIDAQFEAYLQEELKIKRSLFNYHDTRIHACLYFIAPTGHSLKSLDLVTMKKLDSKVNIIPIIAKADTIAKNELHKFKSKIMSELVSNGVQIYQFPTDEETVAEINATMSVHLPFAVVGSTEEVKIGNKMAKARQYPWGVVQVENENHCDFVKLREMLIRVNMEDLREQTHTRHYELYRRCKLEEMGFKDTDPDSKPFSLQETYEAKRNEFLGELQKKEEEMRQMFVMRVKEKEAELKEAEKELHEKFDLLKRTHQEEKKKVEDKKKELEEEVNNFQKKKAAAQLLQSQAQQSGAQQTKKDKDKKNASFT
binding [1]: no binding

B2: Flag-SEPT11, full-length (protein, UniProt Q9NVA2 1-429)
chain: B1 chain
binding [2]: no binding

B3: SEPT11, overexpressed in HepG2 and Huh7 cells (protein, UniProt Q9NVA2 1-429)
chain: B1 chain
binding [3]: no binding
